The test system of the experiment is CD2F1 mice, L1210 leukemia ip, survival T/C. Description: NCI In Vivo Anticancer Drug Screen. Data for tumor model L1210 Leukemia (intraperitoneal) in CD2F1 (CDF1) mice. As to conditions: higher T/C = longer survival. The procedure, abridged: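 Antitumor effect is scored in animals hosting a serially transplanted tumor. Values compare compound-dosed animals against vehicle-only controls as a simple quotient.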

Setting [1] is: T/C endpoint: mean survival time, dose: 400.0 mg/kg/injection, schedule: Q01DX001 (ip), vehicle: saline.
The mark [2] stands for this setting: T/C endpoint: mean survival time, dose: 200.0 mg/kg/injection, schedule: Q01DX009 (ip), vehicle: Klucel (hydroxypropylcellulose) (HPC).

The list does not hold the whole screen: it gathers tests that were run many times, whatever their T/C, doses with no T/C, and many T/C values between a quarter and a half above the control. Further doses and runs are listed elsewhere. T/C gives the treated animals as a percentage of the vehicle group. Some doses have a count of surviving animals in place of a T/C: the source holds a T/C of zero for them, seemingly a mark for toxic or unscored doses. Some doses without a T/C left all or most animals alive at the check, yet need not have been tolerated: the source hardly ever lists a survival T/C far under the control, and the zero likely stands for such cases as well. Survivors were counted at the toxicity check, usually on the fifth day, unless a day is given; later deaths do not show. Schedules are NCI's codes, read here as Q, the interval in days (D) or hours (H), X, the number of doses. Where survival is the endpoint, the PubChem record calls one and a half times the control and up active, and a quarter to a half above the control has no call in these data; cut-offs in other NCI protocols can differ. Some T/C values carry the count of animals alive at the toxicity check (mostly the fifth day); without a count, all were alive then. Some doses were run more than once; the values are given in rising order. Marks such as (2×) say how often a value occurs here.

With `C1CCC(C2CCCC[N-]2)[N-]C1.C1CCC(C2CCCC[N-]2)[N-]C1.[Cl][Ru][Cl]` (stereo unspecified), the survivor count is 0 of 6 (T/C endpoint: mean survival time, dose: 100.0 mg/kg/injection, schedule: Q04DX003 (ip), vehicle: distilled water + Tween-80) and 0 of 6 (T/C endpoint: mean survival time, dose: 200.0 mg/kg/injection, schedule: Q04DX003 (ip), vehicle: distilled water + Tween-80).
Regarding `COC(=O)c1cc([N+](=O)[O-])cc([N+](=O)[O-])c1Sc1ncnc2nc[nH]c12`, the survivor count reads like this: (T/C endpoint: mean survival time, dose: 20.0 mg/kg/injection, schedule: Q01DX005 (ip), vehicle: other) 1 of 3; (T/C endpoint: mean survival time, dose: 80.0 mg/kg/injection, schedule: Q01DX005 (ip), vehicle: other) 0 of 3.
For the compound `FC(F)(F)/C([S-])=C(/[S-])C(F)(F)F.[Fe].[c-]1[c-][c-][cH-][c-]1`, where the note is “T/C endpoint: mean survival time, dose: 300.0 mg/kg/injection, schedule: Q01DX001 (ip), vehicle: other”, the survivor count is 2 of 6.
With `N#C/C(=C\c1ccc(-c2ccccc2)cc1)c1ccc([N+](=O)[O-])cc1`, the survivor count (T/C endpoint: mean survival time, dose: 100.0 mg/kg/injection, schedule: Q04DX003 (ip), vehicle: saline with Tween-80) is on record as 6 of 6.
As for `NCc1cccc(-c2nc3ncnc(N)c3[nH]2)c1`, under “T/C endpoint: mean survival time, dose: 200.0 mg/kg/injection, schedule: Q01DX009 (ip), vehicle: saline”, the survivor count is 0 of 3.
For `O=C1C=CC(=O)N1c1ccc2c(c1)OCO2`, under “T/C endpoint: mean survival time, dose: 25.0 mg/kg/injection, schedule: Q01DX009 (ip), vehicle: saline with Tween-80”, the survivor count is reported as 2 of 6.
Consider `COc1ccc(OC)c(/C=C/c2ccnc3ccccc23)c1`, for which the survivor count (T/C endpoint: median survival time, dose: 800.0 mg/kg/injection, schedule: Q01DX009 (ip), vehicle: saline with Tween-80) is given as 2 of 6.
With `CN1C(=O)C2(Cc3cn(C45CC67SSC(CO)(C(=O)N6C4Nc4ccccc45)N(C)C7=O)c4ccccc34)SSC1(CO)C(=O)N2C` (stereo unspecified), the survivor count is on record as 1 of 6 (T/C endpoint: mean survival time, dose: 2.5 mg/kg/injection, schedule: Q01DX009 (ip), vehicle: Klucel (hydroxypropylcellulose) (HPC)); 0 of 6 (T/C endpoint: mean survival time, dose: 5.0 mg/kg/injection, schedule: Q01DX009 (ip), vehicle: Klucel (hydroxypropylcellulose) (HPC)); 0 of 6 (T/C endpoint: mean survival time, dose: 10.0 mg/kg/injection, schedule: Q01DX009 (ip), vehicle: Klucel (hydroxypropylcellulose) (HPC)); 0 of 6 (T/C endpoint: mean survival time, dose: 20.0 mg/kg/injection, schedule: Q01DX009 (ip), vehicle: Klucel (hydroxypropylcellulose) (HPC)).
Consider `CN1CCN(CCCN2C(=O)C3CC=CCC3C2=O)CC1` (stereo unspecified), for which the survivor count under setting [1] is listed as 3 of 6.
As for `CCCCN(CCCC)C(Cl)=Nc1ccccc1`, the survivor count under setting [2] is 3 of 6.
For `C=COC(N)=O`, under “T/C endpoint: mean survival time, dose: 75.0 mg/kg/injection, schedule: Q01DX001 (ip), vehicle: saline”, the T/C is 125 % of control. The survivor count was 0 of 6 (T/C endpoint: mean survival time, dose: 150.0 mg/kg/injection, schedule: Q01DX001 (ip), vehicle: saline) and 0 of 6 (T/C endpoint: mean survival time, dose: 300.0 mg/kg/injection, schedule: Q01DX001 (ip), vehicle: saline).
Regarding `Cc1cc(N(CCOS(C)(=O)=O)CCOS(C)(=O)=O)ccc1C=Nc1ccc(-c2nc(Cc3ccccc3)sc2C)cc1`, the T/C (T/C endpoint: mean survival time, dose: 25.0 mg/kg/injection, schedule: Q01DX009 (ip), vehicle: Klucel (hydroxypropylcellulose) (HPC)) is 127 % of control; the T/C (T/C endpoint: mean survival time, dose: 50.0 mg/kg/injection, schedule: Q01DX009 (ip), vehicle: Klucel (hydroxypropylcellulose) (HPC)) is 130 % of control; the T/C (T/C endpoint: mean survival time, dose: 100.0 mg/kg/injection, schedule: Q01DX009 (ip), vehicle: Klucel (hydroxypropylcellulose) (HPC)) is 141 % of control; the T/C under setting [2] was 137 % of control; the T/C (T/C endpoint: median survival time, dose: 25.0 mg/kg/injection, schedule: Q01DX005 (ip), vehicle: Klucel (hydroxypropylcellulose) (HPC), evaluated on day 30) is 116 (2×), 117, 119, 123 (2×), 127, 130, 133 [5 of 6 alive], 135 % of control; the T/C (T/C endpoint: median survival time, dose: 25.0 mg/kg/injection, schedule: Q01DX005 (ip), vehicle: Klucel (hydroxypropylcellulose) (HPC), evaluated on day 60) was 134 % of control. Besides, the T/C is, setting by setting: (T/C endpoint: median survival time, dose: 25.0 mg/kg/injection, schedule: Q01DX009 (ip), vehicle: Klucel (hydroxypropylcellulose) (HPC), evaluated on day 30) 107, 116, 120, 121, 126, 131, 132, 135 (2×), 147 % of control; (T/C endpoint: median survival time, dose: 25.0 mg/kg/injection, schedule: Q01DX009 (ip), vehicle: Klucel (hydroxypropylcellulose) (HPC), evaluated on day 60) 120 % of control [5 of 6 alive]; (T/C endpoint: median survival time, dose: 50.0 mg/kg/injection, schedule: Q01DX005 (ip), vehicle: Klucel (hydroxypropylcellulose) (HPC), evaluated on day 30) 114, 122 (2×), 123 [5 of 6 alive], 128 [5 of 6 alive], 131, 135 (2×), 139, 142 % of control; (T/C endpoint: median survival time, dose: 50.0 mg/kg/injection, schedule: Q01DX005 (ip), vehicle: Klucel (hydroxypropylcellulose) (HPC), evaluated on day 60) 146 % of control; (T/C endpoint: median survival time, dose: 50.0 mg/kg/injection, schedule: Q01DX009 (ip), vehicle: Klucel (hydroxypropylcellulose) (HPC), evaluated on day 30) 104, 121 (2×), 125, 129, 137, 142 (3×), 148 % of control; (T/C endpoint: median survival time, dose: 50.0 mg/kg/injection, schedule: Q01DX009 (ip), vehicle: Klucel (hydroxypropylcellulose) (HPC), evaluated on day 60) 128 % of control [5 of 6 alive]. Besides, the T/C runs as follows: (T/C endpoint: median survival time, dose: 100.0 mg/kg/injection, schedule: Q01DX005 (ip), vehicle: Klucel (hydroxypropylcellulose) (HPC), evaluated on day 30) 123, 133, 136, 142 (2×), 146, 147 [5 of 6 alive], 151, 156, 158 % of control; (T/C endpoint: median survival time, dose: 100.0 mg/kg/injection, schedule: Q01DX005 (ip), vehicle: Klucel (hydroxypropylcellulose) (HPC), evaluated on day 60) 145 % of control; (T/C endpoint: median survival time, dose: 100.0 mg/kg/injection, schedule: Q01DX009 (ip), vehicle: Klucel (hydroxypropylcellulose) (HPC), evaluated on day 30) 110, 113, 117, 120, 121, 128, 132, 133, 137 [5 of 6 alive], 148 % of control; (T/C endpoint: median survival time, dose: 100.0 mg/kg/injection, schedule: Q01DX009 (ip), vehicle: Klucel (hydroxypropylcellulose) (HPC), evaluated on day 60) 140 % of control; (T/C endpoint: median survival time, dose: 200.0 mg/kg/injection, schedule: Q01DX005 (ip), vehicle: Klucel (hydroxypropylcellulose) (HPC), evaluated on day 30) 91, 104, 113, 117, 119 [5 of 6 alive], 132, 133, 138, 144, 173 % of control; (T/C endpoint: median survival time, dose: 200.0 mg/kg/injection, schedule: Q01DX005 (ip), vehicle: Klucel (hydroxypropylcellulose) (HPC), evaluated on day 60) 158 % of control. Moreover, the T/C runs as follows: (T/C endpoint: median survival time, dose: 200.0 mg/kg/injection, schedule: Q01DX009 (ip), vehicle: Klucel (hydroxypropylcellulose) (HPC), evaluated on day 30) 89, 107, 108, 110, 111, 116, 118, 123, 132, 165 % of control; (T/C endpoint: median survival time, dose: 200.0 mg/kg/injection, schedule: Q01DX009 (ip), vehicle: Klucel (hydroxypropylcellulose) (HPC), evaluated on day 60) 142 % of control; (T/C endpoint: median survival time, dose: 400.0 mg/kg/injection, schedule: Q01DX005 (ip), vehicle: Klucel (hydroxypropylcellulose) (HPC), evaluated on day 30) 89, 95 [5 of 6 alive], 98, 109, 113, 114, 118, 120, 135 [5 of 6 alive], 188 % of control; (T/C endpoint: median survival time, dose: 400.0 mg/kg/injection, schedule: Q01DX005 (ip), vehicle: Klucel (hydroxypropylcellulose) (HPC), evaluated on day 60) 189 % of control; (T/C endpoint: median survival time, dose: 400.0 mg/kg/injection, schedule: Q01DX009 (ip), vehicle: Klucel (hydroxypropylcellulose) (HPC), evaluated on day 30) 87 [5 of 6 alive], 93, 96 [5 of 6 alive], 98 (2×), 100, 101, 112, 156 % of control; (T/C endpoint: median survival time, dose: 400.0 mg/kg/injection, schedule: Q01DX009 (ip), vehicle: Klucel (hydroxypropylcellulose) (HPC), evaluated on day 60) 122 % of control. In addition, the survivor count under setting [2] is on record as 5 of 6; the survivor count (T/C endpoint: mean survival time, dose: 400.0 mg/kg/injection, schedule: Q01DX009 (ip), vehicle: Klucel (hydroxypropylcellulose) (HPC)) is reported as 6 of 6; the survivor count (T/C endpoint: median survival time, dose: 400.0 mg/kg/injection, schedule: Q01DX009 (ip), vehicle: Klucel (hydroxypropylcellulose) (HPC)) is recorded as 6 of 6.
Regarding `NCCS/C=C/C(=O)Oc1ccc(Br)cc1`, for the setting “T/C endpoint: mean survival time, dose: 400.0 mg/kg/injection, schedule: Q04DX003 (ip), vehicle: saline with Tween-80”, the survivor count was 1 of 6.
As for `C1CCC(CCC2CCCC[N-]2)[N-]C1.[I][Co][I]` (stereo unspecified), the survivor count reads like this: (T/C endpoint: mean survival time, dose: 200.0 mg/kg/injection, schedule: Q01DX001 (ip), vehicle: saline) 1 of 3; under setting [1], 0 of 3.
In the case of `CC(=O)N(Cc1ccccn1)N=O`, for the setting “T/C endpoint: mean survival time, dose: 300.0 mg/kg/injection, schedule: Q01DX001 (ip), vehicle: water”, the survivor count is listed as 0 of 6.
`ClCc1ccc2ccccc2n1`: under “T/C endpoint: mean survival time, dose: 400.0 mg/kg/injection, schedule: Q01DX009 (ip), vehicle: saline with Tween-80”, the survivor count is recorded as 2 of 6.
With `C[N+](C)(C)c1cc2c(nn1)Nc1ccccc1S2`, the survivor count (T/C endpoint: mean survival time, dose: 200.0 mg/kg/injection, schedule: Q04DX003 (ip), vehicle: saline) is 0 of 6.
